Measured values as given in patent US10662413B2, “Recombinant DNA polymerase for improved incorporation of nucleotide analogues” (PERSONAL GENOMICS, INC., priority 2016, dated 2020).
Positions count from the first letter of the chain named. In names and notes the source's numbering stands. Some of these results come from one statement about several compounds together.

B1: D480P: 9° N-III mutant D480P, nucleotide binding pocket (protein)
chain: MILDTDYITENGKPVIRVFKKENGEFKIEYDRTFEPYFYALLKDDSAIEDVKKVTAKRHGTVVKVKRAEKVQKKFLGRPIEVWKLYFNHPQDVPAIRDRIRAHPAVVDIYEYDIPFAKRYLIDKGLIPMEGDEELTMLAFAIATLYHEGEEFGTGPILMISYADGSEARVITWKKIDLPYVDVVSTEKEMIKRFLRVVREKDPDVLITYNGDNFDFAYLKKRCEELGIKFTLGRDGSEPKIQRMGDRFAVEVKGRIHFDLYPVIRRTINLPTYTLEAVYEAVFGKPKEKVYAEEIAQAWESGEGLERVARYSMEDAKVTYELGREFFPMEAQLSRLIGQSLWDVSRSSTGNLVEWFLLRKAYKRNELAPNKPDERELARRRGGYAGGYVKEPERGLWDNIVYLDFRSSAVSIIITHNVSPDTLNREGCKEYDVAPEVGHKFCKDFPGFIPSLLGDLLEERQKIKRKMKATVDPLEKKLLPYRQRLIKILANSFYGYYGYAKARWYCKECAESVTAWGREYIEMVIRELEEKFGFKVLYADTDGLHATIPGADAETVKKKAKEFLKYINPKLPGLLELEYEGFYVRGFFVTKKKYAVIDEEGKITTRGLEIVRRDWSEIAKETQARVLEAILKHGDVEEAVRIVKEVTEKLSKYEVPPEKLVIHEQITRDLRDYKATGPHVAVAKRLAARGVKIRPGTVISYIVLKGSGRIGDRAIPADEFDPTKHRYDAEYYIENQVLPAVERILKAFGYRKEDLRYQKTKQVGLGAWLKVKGKK
B2: I486P: 9° N-III mutant I486P, nucleotide binding pocket (protein)
chain: B1 chain with P480D, I486P
B3: I486W: 9° N-III mutant I486W, nucleotide binding pocket (protein)
chain: B1 chain with P480D, I486W

System: M13 bacteriophage 100 base-long template
Experiment: Processivity of 9° N-III mutants on 5′Q-3′-Na
Details: M13 100 base-long template

Row | Molecule | template position with VIC signal (ATTO532 incorporation)
1 | B1 | over 60
2 | B2 | over 60
3 | B3 | over 60
